Results are given in words; binding and its absence hold for the method and conditions named. In cells and extracts the contact can be indirect. Some binding calls cover weakened binding; strength is not graded here. For part of these data: Where a sequence is shown, tags or fusion partners need not be part of it.

Assay [1] concerns the target T1, NPH3_S744A (Arabidopsis thaliana) (UniProt Q9FMF5).
T1 sequence: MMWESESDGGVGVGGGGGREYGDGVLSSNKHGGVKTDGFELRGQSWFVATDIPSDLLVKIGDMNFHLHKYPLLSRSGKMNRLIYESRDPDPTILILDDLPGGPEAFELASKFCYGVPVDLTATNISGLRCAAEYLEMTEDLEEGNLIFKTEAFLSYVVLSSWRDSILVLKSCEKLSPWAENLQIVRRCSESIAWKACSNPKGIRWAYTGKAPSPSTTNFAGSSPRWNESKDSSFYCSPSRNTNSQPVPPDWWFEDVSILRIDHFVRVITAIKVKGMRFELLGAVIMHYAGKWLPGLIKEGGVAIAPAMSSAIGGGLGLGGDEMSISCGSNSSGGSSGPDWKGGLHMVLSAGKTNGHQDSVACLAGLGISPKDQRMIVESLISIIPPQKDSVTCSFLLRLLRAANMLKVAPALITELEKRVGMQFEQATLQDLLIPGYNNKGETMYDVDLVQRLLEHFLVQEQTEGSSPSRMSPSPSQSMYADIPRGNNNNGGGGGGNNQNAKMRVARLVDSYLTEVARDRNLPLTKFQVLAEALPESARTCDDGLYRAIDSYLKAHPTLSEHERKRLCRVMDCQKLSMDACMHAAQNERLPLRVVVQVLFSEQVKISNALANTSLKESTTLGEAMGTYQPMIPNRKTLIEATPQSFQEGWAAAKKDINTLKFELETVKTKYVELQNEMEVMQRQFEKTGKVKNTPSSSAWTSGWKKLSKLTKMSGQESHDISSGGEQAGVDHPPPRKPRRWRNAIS
Briefly: FRET or BRET. (Bioluminescence resonance energy transfer reports proximity on the nanometre scale.)

In assay [2] the target is T2, ROOT PHOTOTROPISM 2 (RPT2), RFP-tagged (Arabidopsis thaliana) (UniProt Q682S0).
T2 sequence: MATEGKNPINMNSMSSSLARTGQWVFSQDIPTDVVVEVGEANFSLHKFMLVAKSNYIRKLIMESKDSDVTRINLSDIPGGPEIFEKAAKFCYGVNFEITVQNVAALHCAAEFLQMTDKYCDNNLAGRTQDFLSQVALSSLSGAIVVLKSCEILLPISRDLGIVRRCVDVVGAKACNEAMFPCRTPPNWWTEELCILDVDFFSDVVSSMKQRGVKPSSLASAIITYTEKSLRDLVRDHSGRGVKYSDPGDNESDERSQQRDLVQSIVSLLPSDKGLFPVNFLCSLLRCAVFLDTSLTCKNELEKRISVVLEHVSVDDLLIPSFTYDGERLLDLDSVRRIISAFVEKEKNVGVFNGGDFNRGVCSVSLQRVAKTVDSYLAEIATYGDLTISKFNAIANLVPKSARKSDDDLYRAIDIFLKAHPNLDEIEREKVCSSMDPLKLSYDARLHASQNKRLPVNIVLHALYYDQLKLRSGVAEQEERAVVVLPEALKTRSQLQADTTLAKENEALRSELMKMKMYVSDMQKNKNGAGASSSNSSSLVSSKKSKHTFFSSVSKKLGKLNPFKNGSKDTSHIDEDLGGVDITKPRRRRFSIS
Kind of assay: co-IP.

For assay [3], the target named is NPH3ΔN197 (Arabidopsis thaliana) (UniProt Q9FMF5). Kind of assay: co-IP.
Assay [4] has as its target T3, NPH3ΔC51 (Arabidopsis thaliana) (UniProt Q9FMF5).
T3 sequence: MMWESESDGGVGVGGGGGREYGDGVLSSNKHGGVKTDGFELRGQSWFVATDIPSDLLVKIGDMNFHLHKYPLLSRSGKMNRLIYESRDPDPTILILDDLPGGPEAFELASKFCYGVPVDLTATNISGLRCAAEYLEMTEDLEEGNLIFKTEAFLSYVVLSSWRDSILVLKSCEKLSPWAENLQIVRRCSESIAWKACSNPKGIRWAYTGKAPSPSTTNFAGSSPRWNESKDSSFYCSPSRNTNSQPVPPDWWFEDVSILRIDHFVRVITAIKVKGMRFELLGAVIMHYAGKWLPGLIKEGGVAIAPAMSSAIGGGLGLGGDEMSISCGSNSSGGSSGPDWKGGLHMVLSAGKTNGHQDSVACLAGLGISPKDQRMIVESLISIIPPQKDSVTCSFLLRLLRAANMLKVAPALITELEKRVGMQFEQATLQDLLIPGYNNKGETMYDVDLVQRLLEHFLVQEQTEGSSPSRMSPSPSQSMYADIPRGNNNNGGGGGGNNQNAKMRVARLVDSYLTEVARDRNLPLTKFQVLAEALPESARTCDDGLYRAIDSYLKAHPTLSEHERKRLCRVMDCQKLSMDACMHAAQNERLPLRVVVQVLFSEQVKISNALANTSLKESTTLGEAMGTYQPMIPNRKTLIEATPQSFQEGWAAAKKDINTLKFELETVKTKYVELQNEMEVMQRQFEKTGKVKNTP
Kind of assay: co-IP.

The target of assay [5] is NPH3ΔC104 (Arabidopsis thaliana) (UniProt Q9FMF5). Kind of assay: co-IP.
The target of assay [6] is T4, NON-PHOTOTROPIC HYPOCOTYL 3 (NPH3), fluorophore-tagged, expressed in N. benthamiana (Arabidopsis thaliana) (UniProt Q9FMF5).
T4 sequence: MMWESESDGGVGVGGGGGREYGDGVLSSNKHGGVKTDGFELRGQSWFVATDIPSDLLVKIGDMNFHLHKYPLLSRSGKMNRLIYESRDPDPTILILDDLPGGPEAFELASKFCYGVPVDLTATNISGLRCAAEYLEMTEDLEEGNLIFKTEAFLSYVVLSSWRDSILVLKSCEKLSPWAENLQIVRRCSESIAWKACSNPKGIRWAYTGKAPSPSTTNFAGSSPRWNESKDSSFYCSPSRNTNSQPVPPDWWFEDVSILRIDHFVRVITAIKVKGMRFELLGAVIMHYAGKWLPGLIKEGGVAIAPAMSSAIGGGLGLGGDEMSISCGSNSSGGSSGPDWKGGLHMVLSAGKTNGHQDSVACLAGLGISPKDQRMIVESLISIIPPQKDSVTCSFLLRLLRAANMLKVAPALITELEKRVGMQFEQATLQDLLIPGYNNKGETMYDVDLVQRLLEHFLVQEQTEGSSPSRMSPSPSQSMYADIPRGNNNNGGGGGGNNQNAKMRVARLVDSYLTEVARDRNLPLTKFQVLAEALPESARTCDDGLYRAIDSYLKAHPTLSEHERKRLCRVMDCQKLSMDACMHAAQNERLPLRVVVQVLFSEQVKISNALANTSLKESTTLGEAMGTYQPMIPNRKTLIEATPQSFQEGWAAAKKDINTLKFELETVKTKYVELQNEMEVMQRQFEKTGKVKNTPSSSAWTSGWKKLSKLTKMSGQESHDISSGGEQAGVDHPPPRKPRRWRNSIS
Kind of assay: co-IP.

B1: NPH3ΔLIP_WLM/E (protein, UniProt Q9FMF5)
chain: MMWESESDGGVGVGGGGGREYGDGVLSSNKHGGVKTDGFELRGQSWFVATDIPSDLLVKIGDMNFHLHKYPLLSRSGKMNRLIYESRDPDPTILILDDLPGGPEAFELASKFCYGVPVDLTATNISGLRCAAEYLEMTEDLEEGNLIFKTEAFLSYVVLSSWRDSILVLKSCEKLSPWAENLQIVRRCSESIAWKACSNPKGIRWAYTGKAPSPSTTNFAGSSPRWNESKDSSFYCSPSRNTNSQPVPPDWWFEDVSILRIDHFVRVITAIKVKGMRFELLGAVIMHYAGKWLPGLIKEGGVAIAPAMSSAIGGGLGLGGDEMSISCGSNSSGGSSGPDWKGGLHMVLSAGKTNGHQDSVACLAGLGISPKDQRMIVESLISIIPPQKDSVTCSFLLRLLRAANMLKVAPALITELEKRVGMQFEQATLQDLLIPGYNNKGETMYDVDLVQRLLEHFLVQEQTEGSSPSRMSPSPSQSMYADIPRGNNNNGGGGGGNNQNAKMRVARLVDSYLTEVARDRNLPLTKFQVLAEALPESARTCDDGLYRAIDSYLKAHPTLSEHERKRLCRVMDCQKLSMDACMHAAQNERLPSEQVKISNALANTSLKESTTLGEAMGTYQPMIPNRKTLIEATPQSFQEGEAAAKKDINTLKFEEETVKTKYVELQNEMEVEQRQFEKTGKVKNTPSSSAWTSGWKKLSKLTKMSGQESHDISSGGEQAGVDHPPPRKPRRWRNSIS
For the molecule B1, the binding entry in assay [1] is recorded as “no binding”.

B2: NPH3ΔN197 (domain or fragment, UniProt Q9FMF5 198-746)
chain: SNPKGIRWAYTGKAPSPSTTNFAGSSPRWNESKDSSFYCSPSRNTNSQPVPPDWWFEDVSILRIDHFVRVITAIKVKGMRFELLGAVIMHYAGKWLPGLIKEGGVAIAPAMSSAIGGGLGLGGDEMSISCGSNSSGGSSGPDWKGGLHMVLSAGKTNGHQDSVACLAGLGISPKDQRMIVESLISIIPPQKDSVTCSFLLRLLRAANMLKVAPALITELEKRVGMQFEQATLQDLLIPGYNNKGETMYDVDLVQRLLEHFLVQEQTEGSSPSRMSPSPSQSMYADIPRGNNNNGGGGGGNNQNAKMRVARLVDSYLTEVARDRNLPLTKFQVLAEALPESARTCDDGLYRAIDSYLKAHPTLSEHERKRLCRVMDCQKLSMDACMHAAQNERLPLRVVVQVLFSEQVKISNALANTSLKESTTLGEAMGTYQPMIPNRKTLIEATPQSFQEGWAAAKKDINTLKFELETVKTKYVELQNEMEVMQRQFEKTGKVKNTPSSSAWTSGWKKLSKLTKMSGQESHDISSGGEQAGVDHPPPRKPRRWRNSIS
With B2, the binding entry in assay [2] and in assay [3] was “binds” each time.

B3: NPH3ΔC104 (domain or fragment, UniProt Q9FMF5 1-642)
chain: MMWESESDGGVGVGGGGGREYGDGVLSSNKHGGVKTDGFELRGQSWFVATDIPSDLLVKIGDMNFHLHKYPLLSRSGKMNRLIYESRDPDPTILILDDLPGGPEAFELASKFCYGVPVDLTATNISGLRCAAEYLEMTEDLEEGNLIFKTEAFLSYVVLSSWRDSILVLKSCEKLSPWAENLQIVRRCSESIAWKACSNPKGIRWAYTGKAPSPSTTNFAGSSPRWNESKDSSFYCSPSRNTNSQPVPPDWWFEDVSILRIDHFVRVITAIKVKGMRFELLGAVIMHYAGKWLPGLIKEGGVAIAPAMSSAIGGGLGLGGDEMSISCGSNSSGGSSGPDWKGGLHMVLSAGKTNGHQDSVACLAGLGISPKDQRMIVESLISIIPPQKDSVTCSFLLRLLRAANMLKVAPALITELEKRVGMQFEQATLQDLLIPGYNNKGETMYDVDLVQRLLEHFLVQEQTEGSSPSRMSPSPSQSMYADIPRGNNNNGGGGGGNNQNAKMRVARLVDSYLTEVARDRNLPLTKFQVLAEALPESARTCDDGLYRAIDSYLKAHPTLSEHERKRLCRVMDCQKLSMDACMHAAQNERLPLRVVVQVLFSEQVKISNALANTSLKESTTLGEAMGTYQPMIPNRKTLIEAT
On to B3, for which the binding result in assay [4], in assay [5] and in assay [6] was “binds weakly” each time.

For the origin of these results see paper doi:10.1101/2024.06.17.598829 (bioRxiv, 2024).
